Patent US20160377635A1, “Measurement of Oxytocin and Vasopressin” (Martin-Protean LLC, priority 2013, published 2016)

Assay: plasma oxytocin and vasopressin by LC-MS/MS, with or without redox perturbation
Set-up: species or system human

For NC(=O)CC[C@@H]1NC(=O)[C@H](Cc2ccccc2)NC(=O)[C@H](Cc2ccc(O)cc2)NC(=O)[C@@H](N)CSSC[C@@H](C(=O)N2CCC[C@H]2C(=O)N[C@@H](CCCN=C(N)N)C(=O)NCC(N)=O)NC(=O)[C@H](CC(N)=O)NC1=O [vasopressin], the “endogenous level in whole plasma by LC-MS/MS” value (plasma not perturbed) was “undetectable” and the “endogenous level in whole plasma by LC-MS/MS” value (redox perturbed sample) was “nM levels”.
